Reference: PubChem BioAssay AID540256 (National Center for Advancing Translational Sciences (NCATS), 2011)
Hit rate of the full screen: of about 300,000 compounds, about 3,700 (1.2%) were called active. This list was built around the results that the source calls inconclusive (neither active nor inactive); the mix of calls is not that of the screen. Calls come from the whole dose curve; tested in HEK293 cells. Potencies of inconclusive entries are doubtful fits and often do not repeat.

Experiment: qHTS for Inhibitors of binding or entry into cells for Lassa Virus; note: nearly all actives have a fitted effect of over 50% in size
Settings: Lassa virus pseudotype entry inhibition, cell reporter; series mostly up to 37.9 µM
Potency is the fitted concentration of half-maximal effect.

| SMILES | Potency |
| --- | --- |
| Cc1ccc(-c2nnc(NC3CCCC3)s2)cc1 | inconclusive: 14.1 µM [inhibitor, single point] |
| CCc1nn2c(=O)cc(COC(=O)c3ccccc3)nc2s1 | inconclusive: 3.55 µM [activator, partial curve, poor fit] |
| NS(=O)(=O)c1ccc(NC(=O)Nc2cccc(Cl)c2)cc1 | inconclusive: 11.2 µM [activator, single point] |
| Cc1nc2ccccn2c1-c1nnco1 | inactive |
| CSc1ncccc1C(=O)OCc1c(F)cccc1Cl | inactive |
| Cc1ccc(-c2cc3ncc4c(n3n2)-c2cc(F)ccc2OC4)cc1 | inactive |
| COC(=O)c1cccc(S(=O)(=O)N(Cc2ccco2)Cc2cc3cc(OC)ccc3[nH]c2=O)c1 | inconclusive: 13 µM [inhibitor, single point] |
| COc1ccc(C)cc1NC(=O)C1CCN(S(=O)(=O)c2cc(Br)cc3c2N(C(C)=O)CC3)CC1 | inconclusive: 35.5 µM [activator, single point] |
| CCOc1ccc(C(=O)NC(=S)Nc2ncccc2C)cc1[N+](=O)[O-] | inactive |
| CCCNC(=O)c1ccc(COc2ccc(CCC)cc2OC)o1 | active: 6.31 µM |
| O=C(N=Nc1c(O)[nH]c2ccc(Br)cc12)c1ccccc1-n1cccc1 | inconclusive: 5.8 µM [inhibitor, full curve, poor fit] |
| CCOc1ccccc1-n1c(SCC(=O)Nc2ccccc2C(=O)O)nc2ccccc2c1=O | inactive |
| COc1ccc(Cl)cc1C=CC=Nc1ccc(S(N)(=O)=O)cc1 | inconclusive: 3.55 µM [inhibitor, partial curve, poor fit] |
| CCn1ccnc1CN1CCC(n2nccc2NC(=O)c2ccccc2OC)CC1 | inactive |
| O=C(c1cc(COc2ccc(F)cc2Cl)on1)N(Cc1ccncc1)CC1CCCO1 (stereo not drawn) | inconclusive: 10 µM [inhibitor, partial curve, poor fit] |
| Cc1oc(-c2ccccc2Cl)nc1CS(=O)(=O)CC(=O)NCc1ccc(F)cc1 | inactive |
| CCN(CC)C(=O)c1ccccc1NC(=O)CN1C(=O)c2ccccc2S1(=O)=O | inactive |
| O=C(Cc1cccs1)NNC(=S)NCc1ccc(Cl)cc1 | inactive |
| CC(C)(C)OC(=O)N1CCCC(C(=O)Nc2cccc(C(=O)NC3CC3)c2)C1 (stereo not drawn) | inactive |
| COc1ccc(S(=O)(=O)N2CCOCC2)cc1NC(=O)CCNC(=O)c1ccc(Cl)cc1 | inconclusive: 0.562 µM [activator, full curve, poor fit] |
| O=C(CC1N=C2c3ccccc3N=C(SCc3ccccc3Cl)N2C1=O)NCCc1ccccc1 (stereo not drawn) | inactive |
| CCn1nc(C(=O)OCC(=O)NCC(C)C)c2ccccc2c1=O | inactive |
| COc1ccccc1C(=O)N/C(N)=N/c1nc2ccccc2o1 | inactive |
| Clc1cccc(CSc2nnc(-c3c[nH]c4ccccc34)o2)c1 | inactive |

Gathered by group, the compounds so far with bromine (2)

| SMILES | Potency |
| --- | --- |
| COc1ccc(C)cc1NC(=O)C1CCN(S(=O)(=O)c2cc(Br)cc3c2N(C(C)=O)CC3)CC1 | inconclusive: 35.5 µM [activator, single point] |
| O=C(N=Nc1c(O)[nH]c2ccc(Br)cc12)c1ccccc1-n1cccc1 | inconclusive: 5.8 µM [inhibitor, full curve, poor fit] |

The results go on:

| SMILES | Potency |
| --- | --- |
| Cc1ccc(C2Nc3ccc4ccccc4c3C3=C2C(=O)CC(C)(C)C3)o1 (stereo not drawn) | inconclusive: 20.6 µM [inhibitor, single point] |
| O=S(=O)(c1ccccc1)N1N=C(c2ccccc2)CC1c1ccccc1 (stereo not drawn) | inactive |
| Cc1ccc(CN2C(=O)c3ccccc3Sc3ccc(C(=O)N4CCC5(CC4)OCCO5)cc32)cc1 | inconclusive: 8.91 µM [inhibitor, single point] |
| CSc1ccc(S(=O)(=O)NCC(=O)OCC(=O)N(C)CC(=O)Nc2ccccc2Cl)cc1[N+](=O)[O-] | inconclusive: 1.26 µM [activator, single point] |
| O=C(CSC1CN(C(c2ccccc2)c2ccccc2)C1)N/N=C/c1ccccc1 | inactive |
| COc1ccc(Cl)cc1C(=O)NCCN(C)C | inactive |
| CCOC(=O)C1CCN(Cc2c(O)c3ccccc3oc2=O)CC1 | inconclusive: 35.5 µM [inhibitor, partial curve, poor fit] |
| CCn1cc([N+](=O)[O-])c(C(=O)N2N=C(c3cccc4ccccc34)CC2c2ccccc2O)n1 (stereo not drawn) | inconclusive: 4.47 µM [inhibitor, partial curve, poor fit] |
| COc1ccc(NC(=O)CN(C)C(=O)c2cc(-c3ccc(OC)cc3)nc3ccccc23)cc1 | inconclusive: 35.5 µM [inhibitor, single point] |
| Cc1cccc(NC(=O)CCn2cnc3ccccc3c2=O)c1 | inconclusive: 1.12 µM [activator, full curve, poor fit] |
| CCc1nn(CC(=O)N2CCCCC2)c(=O)c2cc3occc3n12 | inconclusive: 35.5 µM [activator, single point] |
| Cc1ccc(NC(=O)Nc2ccc3c(c2)nc(C)n3C)cc1 | inconclusive: 35.5 µM [inhibitor, single point] |
| CCCc1nnc(NC(=O)c2nc(SCC)ncc2Cl)s1 | inactive |
| COc1cccc(OCCCCSc2ncccn2)c1 | inactive |
| Cc1ccc(C)c(N2CCN(C(=S)Nc3ccc4nc(N5CCOCC5)cc(C)c4c3)CC2)c1 | inactive |
| O=C(CNC(=O)c1ccccn1)N=Nc1c(O)[nH]c2ccccc12 | inconclusive: 35.5 µM [inhibitor, single point] |
| O=c1c(=O)n(-c2ccc(F)c(F)c2)ccn1Cc1ccc(F)cc1Cl | inactive |
| OCCN1CCN(c2cc(C(F)(F)F)nc3ccccc23)CC1 | inactive |
| Cc1nn(-c2ccccc2)c(C)c1/C=N/NC(=O)c1cc(C(C)(C)C)[nH]n1 | inconclusive: 35.5 µM [inhibitor, single point] |
| COc1ccc(CC(=O)Nc2nc(-c3cccc([N+](=O)[O-])c3)cs2)cc1 | inconclusive: 1.26 µM [inhibitor, full curve] |
| COc1cccc(C(=O)NCc2ccc3c(c2)OCO3)c1OC | inactive |
| O=C(/C=C/c1ccco1)Nc1ccc2c(c1)OCO2 | inconclusive: 12.6 µM [inhibitor, single point] |
| COc1cc(C(=O)Nc2nc(-c3ccc(Cl)cc3)c(C)s2)ccc1OCC(=O)Nc1ccc(F)cc1 | active: 10 µM |
| COCC(C)NC(=O)CCS(=O)(=O)c1nc(-c2ccc(OC)cc2)cc(C(F)(F)F)n1 (stereo not drawn) | inconclusive: 20 µM [inhibitor, single point] |
